In patent publication US6669951B2 (CellGate, Inc., priority 1999, dated 2003) one finds conjugation yield data, which are given here for three substances.

A short description of this data set: general procedure: Fmoc solid-phase peptide synthesis; HATU. To be noted: conjugation step.

HELM strings list residues between dots; [ac] is acetyl, [am] amide, other brackets name non-standard units. * marks the point of attachment. FITC = O=C1OC2(c3ccc(O)cc3Oc3cc(O)ccc32)c2ccc(NC(=S)*)cc21; Ahx = NCCCCCC(=O)O

“Biotin-aminocaproic acid-r5-Cys(acyclovir)-CONH2” yielded a conjugation yield of 36%.

For “PEPTIDE1{[FITC].[Ahx].R.R.R.R.R.R.R.[am]}$$$$V2.0”, the conjugation yield is given as 33% (run 1) and 55% (run 2). For the substance “{FITC-Ahx}-RRRRR-NH2 (SMILES N=C(N)NCCC[C@H](NC(=O)[C@H](CCCNC(=N)N)NC(=O)[C@H](CCCNC(=N)N)NC(=O)[C@H](CCCNC(=N)N)NC(=O)[C@H](CCCNC(=N)N)NC(=O)CCCCCNC(=S)Nc1ccc2c(c1)C(=O)OC21c2ccc(O)cc2Oc2cc(O)ccc21)C(N)=O)”, the conjugation yield is 29%.
